Publication PMC7819943, “Rice protein-binding microarrays: a tool to detect cis-acting elements near promoter regions in rice”
The list shows a part of the results.

Amino acid sequences for entries named in this document (tags omitted).
UniProt Q0JBA9, entry or part of it: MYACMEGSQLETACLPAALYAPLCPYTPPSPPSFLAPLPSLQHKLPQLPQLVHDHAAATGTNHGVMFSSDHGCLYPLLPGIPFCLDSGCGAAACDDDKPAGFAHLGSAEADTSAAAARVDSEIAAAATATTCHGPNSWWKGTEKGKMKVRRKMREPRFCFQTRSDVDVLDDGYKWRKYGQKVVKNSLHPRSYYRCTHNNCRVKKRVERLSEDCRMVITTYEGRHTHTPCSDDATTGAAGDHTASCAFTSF

The sequences below were run against OsWRKY34 (Oryza sativa, UniProt Q0JBA9 1-250) (assay: protein-binding microarray (RPBM); PBS, 2% BSA, 51.3 ng/ul salmon testes DNA, 50 uM zinc acetate, 200 nM TF, 25 C, 1 h; high values mean tight binding). Conditions: protein: recombinant; tags: N-terminal polyhistidine and DsRed monomer fusion (pET32a); label: CyDye5-dUTP incorporated in the synthesized complementary strand; 3' TTTTT single-stranded linker to array surface; dsDNA, one strand shown.
Procedure, shortened: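 The binding signal for each feature is its fluorescence intensity in arbitrary units. An Axon 4000B scanner was used to read a custom Agilent array that had been made double-stranded with Cy5-dUTP primer extension, blocked with 2% BSA, incubated at 25 °C for 1 h with 200 nM protein in PBS, 2% BSA, salmon testes DNA and 50 µM zinc acetate, and washed. The protein was an N-terminal polyhistidine–DsRed transcription factor fusion from E. coli BL21-CodonPlus, purified on Ni–NTA.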

Q: Which binding signal does the source give for “AACGTACCACTCCCGTGGGCCGGACCAACACTCCTTCCCACGGAGTCACCTAGTGCAG” here?
A: 9510 fluorescence intensity (a.u.)

Q: Which binding signal does the source give for “CATCTTCGCTTAGGCTTCGACTCCTTGGTCCTCCTAGTCTCGGAGTCACCTAGTGCAG” here?
A: 9840 fluorescence intensity (a.u.)

Q: “CCTCTCCGCACCTTAACTCCTTCGCTCTCCGCCCACTTCCCGGAGTCACCTAGTGCAG” was tested. Which binding signal did it give?
A: 10100 fluorescence intensity (a.u.)

Q: How did the binding signal turn out when “CCTTTTGCTTCCTTTTAAGCATTGCTTTTCCTGGCCATCCCGGAGTCACCTAGTGCAG” was run?
A: 8970 fluorescence intensity (a.u.)

Q: “CCCGACTACGGCTACATCGACCACGGCTACTCTACGCACGCGGAGTCACCTAGTGCAG” was tested. Which binding signal did it give?
A: 8780 fluorescence intensity (a.u.)

Q: For “TCCCTGTTTTCCTGTGTCTTTCTCCACCTCCTCATATATCCGGAGTCACCTAGTGCAG”, which binding signal is on record?
A: 8620 fluorescence intensity (a.u.)

Q: Which binding signal does the source give for “GGGGAGGCCGGATCTGCGGGGAGGGGCATGGGGTGACCAGCGGAGTCACCTAGTGCAG” here?
A: 15900 fluorescence intensity (a.u.)

Q: “AATTCCCATGCTCTCTCATCCTTCTCTTCCATTCCCAGCTCGGAGTCACCTAGTGCAG” was tested. Which binding signal did it give?
A: 8660 fluorescence intensity (a.u.)

Q: “TTGTTTTTATCTATGTTTAATGCTTCATATATGTGCACAACGGAGTCACCTAGTGCAG” was tested. Which binding signal did it give?
A: 8190 fluorescence intensity (a.u.)

Q: Which binding signal does the source give for “GGTTTATTTGGGACAGGTGGGAGGTTGGTAAGTGAGAATACGGAGTCACCTAGTGCAG” here?
A: 9080 fluorescence intensity (a.u.)

Q: How did the binding signal turn out when “GCGTCTCTCACCGCCATGCTCGTGGCCGCCTCCCGCGATGCGGAGTCACCTAGTGCAG” was run?
A: 8950 fluorescence intensity (a.u.)

Q: Which binding signal does the source give for “ATGCAATTGATCCCTCCTGCCCTCCAGTAGCAACATTCTTCGGAGTCACCTAGTGCAG” here?
A: 8800 fluorescence intensity (a.u.)

Q: How did the binding signal turn out when “TACATACTACACTATTAATATCTGGTCCACATATCATACACGGAGTCACCTAGTGCAG” was run?
A: 10000 fluorescence intensity (a.u.)

Q: “GTGACCTTTGGCAAGGCGACGACGACTTGGAGGGGAGGGCCGGAGTCACCTAGTGCAG” was tested. Which binding signal did it give?
A: 8530 fluorescence intensity (a.u.)

Q: How did the binding signal turn out when “TTTTCGCCTTTCTATCTTTGTCAAGGCACACTTCCTTTTGCGGAGTCACCTAGTGCAG” was run?
A: 10000 fluorescence intensity (a.u.)

Q: For “CTCCTTCATCTGATCTGTCACTGACATCGCGGGCCCACAACGGAGTCACCTAGTGCAG”, which binding signal is on record?
A: 8400 fluorescence intensity (a.u.)

Q: “TGACATGCCATACCCGACATCACCTGTCATTGTCGCAACACGGAGTCACCTAGTGCAG” was tested. Which binding signal did it give?
A: 9900 fluorescence intensity (a.u.)

Q: How did the binding signal turn out when “TTAGGGGTTTTCATTATACTGTAAGTATGTCTTTTTATTTCGGAGTCACCTAGTGCAG” was run?
A: 8240 fluorescence intensity (a.u.)

Q: For “AATGGTGGGCCCCACGTGGACCCCACCTGTCATCCTCGCTCGGAGTCACCTAGTGCAG”, which binding signal is on record?
A: 8180 fluorescence intensity (a.u.)

Q: “AATCCCATTTATATTTATTATTTTTGTTATAACTTGTATACGGAGTCACCTAGTGCAG” was tested. Which binding signal did it give?
A: 9840 fluorescence intensity (a.u.)

Q: “TTATGAGCGGCCTCTACCTCATCCCATCTTCTCTCACACCCGGAGTCACCTAGTGCAG” was tested. Which binding signal did it give?
A: 8590 fluorescence intensity (a.u.)

Q: With “AGCTACGACAGCGTCATTCTGTCTCTGGTTTGAGGTCTCTCGGAGTCACCTAGTGCAG” as the sequence, how does the binding signal read?
A: 8930 fluorescence intensity (a.u.)

Q: Which binding signal does the source give for “TGGTCTACCCATCTTCCCAACCTTCTTGTCACCTACTCTTCGGAGTCACCTAGTGCAG” here?
A: 9560 fluorescence intensity (a.u.)

Q: For “CATATTACTTCTCATATTATACTTGTTTATTCTTCTATTGCGGAGTCACCTAGTGCAG”, which binding signal is on record?
A: 9010 fluorescence intensity (a.u.)

Q: How did the binding signal turn out when “GGTACTCTGGGGTTATAAGTTAATGGGTATGGTATTGTGACGGAGTCACCTAGTGCAG” was run?
A: 11000 fluorescence intensity (a.u.)

Q: With “GGTGGTCGACGGCGCGCGTGGGCTTCGGCATGGCCACTTCCGGAGTCACCTAGTGCAG” as the sequence, how does the binding signal read?
A: 8370 fluorescence intensity (a.u.)

Q: How did the binding signal turn out when “CATGTTTACGTAAGGTTTTTGTTCGGTTTTCCTTATAAAACGGAGTCACCTAGTGCAG” was run?
A: 9710 fluorescence intensity (a.u.)

Q: Which binding signal does the source give for “TGATCCCCATTTGTCTCAATGACGCTGTTGTCAGTCTTGACGGAGTCACCTAGTGCAG” here?
A: 10200 fluorescence intensity (a.u.)

Q: With “AATGGGGTTGGTCGTATCTATCGTAGGTGGATTATTTACCCGGAGTCACCTAGTGCAG” as the sequence, how does the binding signal read?
A: 12800 fluorescence intensity (a.u.)

Q: Which binding signal does the source give for “GCTGTGGTCATGGACAGGGGACGGGCTGGGGTCGTCGCGCCGGAGTCACCTAGTGCAG” here?
A: 8090 fluorescence intensity (a.u.)

Q: How did the binding signal turn out when “CCGTTAAGCGCCGCGACCGACCGAACCGACCGGCCGGTATCGGAGTCACCTAGTGCAG” was run?
A: 8620 fluorescence intensity (a.u.)

Q: With “GCCATTTGCACATCTCTCTCTCTCGCTTCTGCCACTGCTGCGGAGTCACCTAGTGCAG” as the sequence, how does the binding signal read?
A: 10100 fluorescence intensity (a.u.)

Q: “TCCCTATATATCTATCTCTCTGACTATCTTGTTCACATACCGGAGTCACCTAGTGCAG” was tested. Which binding signal did it give?
A: 8310 fluorescence intensity (a.u.)

Q: With “CGTGGTCGTCTCTGGAGTTCTTGTGCTGCTTTTAGCCATCCGGAGTCACCTAGTGCAG” as the sequence, how does the binding signal read?
A: 10500 fluorescence intensity (a.u.)

Q: With “TTCTCTACATTGTTCATTTAGTATTTTTTTCTTTTCATTTCGGAGTCACCTAGTGCAG” as the sequence, how does the binding signal read?
A: 10700 fluorescence intensity (a.u.)

Q: For “TATGTATATACATGACGTGTTTTTTTTCTTTCCGTATCTTCGGAGTCACCTAGTGCAG”, which binding signal is on record?
A: 10100 fluorescence intensity (a.u.)

Q: How did the binding signal turn out when “GGCCATGGCGCAATCACTTCTAGGAGTACCATTCTCTCGCCGGAGTCACCTAGTGCAG” was run?
A: 8370 fluorescence intensity (a.u.)

Q: How did the binding signal turn out when “ACCTCTCTCGTGTCGCGTGCCATTCGCCATCGCCACCACCCGGAGTCACCTAGTGCAG” was run?
A: 10500 fluorescence intensity (a.u.)

Q: With “TACTCCGTACAAATTTTCTTCTGGATCCCACCTCTGCTCTCGGAGTCACCTAGTGCAG” as the sequence, how does the binding signal read?
A: 9050 fluorescence intensity (a.u.)

Q: Which binding signal does the source give for “AGTCGTAGAGCTACACAGATTACTTGGCTTATATCTCACACGGAGTCACCTAGTGCAG” here?
A: 8460 fluorescence intensity (a.u.)

Q: “GCCGCTGCATCTCCCTTTGTGTCTTAGTTAGTTTAATCCCCGGAGTCACCTAGTGCAG” was tested. Which binding signal did it give?
A: 10700 fluorescence intensity (a.u.)

Q: Which binding signal does the source give for “TCCAGGTGGGAAGAGTTGTTGGTGTGTCAGGTTGTCCAATCGGAGTCACCTAGTGCAG” here?
A: 10000 fluorescence intensity (a.u.)
